In publication doi:10.1101/2023.05.25.542246:
These are yes or no findings as the source states them, for the method shown. Binding seen in cells or lysates may run through a third protein. A yes stands for co-enrichment or nearness to the bait. Other partners may have been found. Where a sequence is shown, tags or fusion partners need not be part of it.

By UniProt entry, the sequences of proteins in these tests, tags left out.
UniProt P21187: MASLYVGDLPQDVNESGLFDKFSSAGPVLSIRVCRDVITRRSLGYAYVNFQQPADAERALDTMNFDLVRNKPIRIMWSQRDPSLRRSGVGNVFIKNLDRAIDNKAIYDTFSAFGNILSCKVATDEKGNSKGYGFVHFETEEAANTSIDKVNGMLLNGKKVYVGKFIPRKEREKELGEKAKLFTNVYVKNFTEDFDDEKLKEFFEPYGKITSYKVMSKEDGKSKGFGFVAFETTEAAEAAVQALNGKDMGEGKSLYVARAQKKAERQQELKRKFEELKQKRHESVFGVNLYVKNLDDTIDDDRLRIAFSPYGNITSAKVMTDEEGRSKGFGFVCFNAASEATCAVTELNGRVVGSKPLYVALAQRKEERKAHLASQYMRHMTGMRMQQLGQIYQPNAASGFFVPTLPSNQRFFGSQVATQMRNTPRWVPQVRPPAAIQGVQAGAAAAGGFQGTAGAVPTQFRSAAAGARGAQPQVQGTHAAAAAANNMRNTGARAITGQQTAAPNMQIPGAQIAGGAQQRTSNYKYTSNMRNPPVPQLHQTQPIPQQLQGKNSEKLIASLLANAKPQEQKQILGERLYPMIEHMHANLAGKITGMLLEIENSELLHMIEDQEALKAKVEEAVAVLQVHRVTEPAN

T1: Drosophila Top3β::eGFP (wild-type Topoisomerase 3β fused to eGFP) (Drosophila melanogaster) (UniProt O96651)
T1 sequence: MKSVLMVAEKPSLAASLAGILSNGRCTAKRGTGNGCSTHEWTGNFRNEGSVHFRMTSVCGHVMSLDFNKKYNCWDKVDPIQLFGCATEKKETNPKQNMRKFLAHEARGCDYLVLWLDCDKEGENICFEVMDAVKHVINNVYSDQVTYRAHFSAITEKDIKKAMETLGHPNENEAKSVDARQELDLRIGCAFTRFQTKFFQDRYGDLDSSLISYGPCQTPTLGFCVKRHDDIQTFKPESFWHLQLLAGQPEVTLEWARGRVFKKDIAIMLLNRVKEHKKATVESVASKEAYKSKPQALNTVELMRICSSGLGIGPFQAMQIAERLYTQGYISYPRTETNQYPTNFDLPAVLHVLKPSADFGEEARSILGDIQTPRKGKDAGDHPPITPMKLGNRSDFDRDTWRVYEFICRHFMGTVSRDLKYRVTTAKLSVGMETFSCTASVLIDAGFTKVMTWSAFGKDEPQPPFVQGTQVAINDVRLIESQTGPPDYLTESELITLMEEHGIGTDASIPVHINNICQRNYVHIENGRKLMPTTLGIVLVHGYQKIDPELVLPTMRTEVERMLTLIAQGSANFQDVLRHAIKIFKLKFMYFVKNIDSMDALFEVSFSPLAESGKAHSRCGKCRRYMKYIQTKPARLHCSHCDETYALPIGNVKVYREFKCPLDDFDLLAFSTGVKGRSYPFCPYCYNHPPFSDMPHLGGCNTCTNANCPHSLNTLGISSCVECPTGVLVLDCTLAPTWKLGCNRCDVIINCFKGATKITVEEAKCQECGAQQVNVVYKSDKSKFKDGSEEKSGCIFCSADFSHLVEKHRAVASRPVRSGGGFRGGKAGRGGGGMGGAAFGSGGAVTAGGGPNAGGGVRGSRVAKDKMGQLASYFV

B1: Me31B (protein, UniProt P23128 1-459)
chain: MMTEKLNSGHTNLTSKGIINDLQIAGNTSDDMGWKSKLKLPPKDNRFKTTDVTDTRGNEFEEFCLKRELLMGIFEKGWERPSPIQEAAIPIALSGKDVLARAKNGTGKTGAYCIPVLEQIDPTKDYIQALVMVPTRELALQTSQICIELAKHLDIRVMVTTGGTILKDDILRIYQKVQLIIATPGRILDLMDKKVADMSHCRILVLDEADKLLSLDFQGMLDHVILKLPKDPQILLFSATFPLTVKNFMEKHLREPYEINLMEELTLKGVTQYYAFVQERQKVHCLNTLFSKLQINQSIIFCNSTQRVELLAKKITELGYCCYYIHAKMAQAHRNRVFHDFRQGLCRNLVCSDLFTRGIDVQAVNVVINFDFPRMAETYLHRIGRSGRFGHLGIAINLITYEDRFDLHRIEKELGTEIKPIPKVIDPALYVANVGASVGDTCNNSDLNNSANEEGNVSK
B2: eIF4E1 (protein, UniProt P48598 1-259)
chain: MQSDFHRMKNFANPKSMFKTSAPSTEQGRPEPPTSAAAPAEAKDVKPKEDPQETGEPAGNTATTTAPAGDDAVRTEHLYKHPLMNVWTLWYLENDRSKSWEDMQNEITSFDTVEDFWSLYNHIKPPSEIKLGSDYSLFKKNIRPMWEDAANKQGGRWVITLNKSSKTDLDNLWLDVLLCLIGEAFDHSDQICGAVINIRGKSNKISIWTADGNNEEAALEIGHKLRDALRLGRNNSLQYQLHKDTMVKQGSNVKSIYTL
B3: Cup (protein, UniProt Q9VMA3 1-1117)
chain: MQMAEAEQENGAGALKIATNAGATDRPAHQQLPLPVEDQQDEVLTPAEKGKFEYPPPPPPPTPVQAPLATKATALNASQEHDDDEANSEKWEDPCAPPPPPPLPTSAFLATGLGYLKLPAFKLKDALEKAITKLEANKRTLKASPESSRSIKNKNVVALEMLPRRSNPETIGDGSMLASTSTAVMLQTKKPAVIVEMERRCKIINLLAKQNQILESISGEAIPMHGPSKHLHEDEGLTLQVLSARASTPYTQPSSMLSCTAVSCDLEHDSPRKQVASKEAVPEQQSSQVQQKRPPSTGIHKPGSLRAPKAVRPTTAPVVSSKPVKSYTRSRLMDIRNGMFNALMHRSKESFVMPRIATCDDIELEGRLRRMNIWRTSDGTRFRTRSTTANLNMNNNNNNECMPAFFKNKNKPNLISDESIIQSQPPQPQTEFQDPAIVNQRRIGSGRLNHSKWGYNDEDYHSYHNGKSQHMEEVNSKNSKNMTVLQFFDNGEISSQPQRRPNTPVMGMSINRSENDTLHSNESSEDLSRANENYVKRVMSGFLVVSKPKSRDVEDRHHRRYRNQNEEPEWFSCGPTSRLDTIELCGFDEDEEKMLKEGNKNHGLGETERETSKQKMDHKYKWTHAEPMGRSKYMPKHDTNNNHNVENMNNVMATEHQQQKEEKRPGSGRSFQFDKFNQSQQNYESSSYVNHQQPPQTQPQQMQQQSNTNTNNSKFMSFFANEGNSSSSSLNEFFKQAINQGHGNNPEQPKSLGHIGQMPSVDQLEAKWRRNSLNNVGETANKQTDNFQKLIGSLSSAKPQSQAVGYDAISNFIMQQQQYQQQQQKQHLIIQQQQQHTAFLASLQLKAILGRADTQLLLLRLTKGEISKHGLLVQLANPRLTDMDREAITAVLQFTNTQQQQQQHKQQLDMLSSTVIASQLQNLHNLAIVQQTLAARQQPQHNPQTQAPHQLSQEDLQAHANVIMRNAVMKRKIEEQTSKLINGGAKHQAQQQYLNRGQQRQARPDANSNALLHALISGGGNNHASGYPMNGQPQKHHSNLRFGDNQNFQSFESNQPHFATQYKQQYQQSQQQHPHQQPQQLNSLHQNNAGAVNSFNKAQMQAQSAISMLPNSGDEFH

Target: T1, Drosophila Top3β::eGFP (wild-type Topoisomerase 3β fused to eGFP) (Drosophila melanogaster)
Assay: affinity purification with mass spectrometry

Row | Molecule | binding
1 | pAbp (from UniProt P21187 1-634) | binds
2 | B1 | binds
3 | B2 | binds
4 | B3 | binds
